# Laboratory results published in the supplement of paper PMC8728848.
# The list shows a part of the results.
# B1: R2-fiber (Pseudomonas aeruginosa), Q9S576 (protein)
# chain: HHHHHHKVAKDLVVSLAYQVRTEDGVLVDESPVSAPLDYLHGHGSLISGLETALEGHEVGDKFDVAVGANDAYGQYDENLVQRVPKDVFMGVDELQVGMRFLAETDQGPVPVEITAVEDDHVVVDGNHMLAGQNLKFNVEVVAIREATEEELAHGHVHGAHDHHHDHDHDGCCGGHGHDHGHEHGGEGCCGGKGNGGCGCHENLYFQGVTAGMALAATDIPGLDASKLVSGVLAEQRLPVFARGLATAVSNSSDPNTATVPLMLTNHANGPVAGRYFYIQSMFYPDQNGNASQIATSYNATSEMYVRVSYAANPSIREWLPWQRCDIGGSFTKEADGELPGGVNLDSMVTSGWWSQSFTAQAASGANYPIVRAGLLHVYAASSNFIYQTYQAYDGESFYFRCRHSNTWFPWRRMWHGGDFNPSDYLLKSGFYWNALPGKPATFPPSAHNHDVGQLTSGILPLARGGVGSNTAAGARSTIGAGVPATASLGASGWWRDNDTGLIRQWGQVTCPADADASITFPIPFPTLCLGGYANQTSAFHPGTDASTGFRGATTTTAVIRNGYFAQAVLSWEAFGR
# Columns and labels:
# Assay in all cases: glycan array binding signal (z-score within array); higher = stronger binding
# Details in all cases: glycan notation: IUPAC condensed, linker removed
# [1] = target: GalNAc(b1-4)GlcNAc
# Summary of the method: (§1)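 The binding signal is a Z-score computed within each array. Data were drawn from 3228 arrays in the Consortium for Functional Glycomics database, restricted to those with a known protein sequence. Scores were averaged over arrays of the same protein sequence at different concentrations or buffers, and over linkers, and negative values can be taken as non-binding.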
# [2] = target: GalNAc(b1-4)GlcNAc(b1-2)Man
# Summary of the method: as §1
# [3] = target: GalNAc(b1-4)GlcNAc(b1-2)Man(a1-3)[GalNAc(b1-4)GlcNAc(b1-2)Man(a1-6)]Man(b1-4)GlcNAc(b1-4)GlcNAc
# Summary of the method: as §1
# [4] = target: GalNAc(b1-4)GlcNAc(b1-3)GalNAc(b1-4)GlcNAc
# Summary of the method: as §1
# [5] = target: GalNAc(b1-4)GlcNAc6S
# Summary of the method: as §1
# [6] = target: GalNAc(b1-6)GalNAc
# Summary of the method: as §1
# [7] = target: GalNAc3S(b1-4)GlcNAc
# Summary of the method: as §1
# [8] = target: GalNAc3S(b1-4)GlcNAc3S
# Summary of the method: as §1
# [9] = target: GalNAc3S(b1-4)[Fuc(a1-3)]GlcNAc
# Summary of the method: as §1
# [10] = target: GalNAc4S6S(b1-4)GlcNAc
# Summary of the method: as §1
# [11] = target: GalNAc6S(b1-4)GlcNAc
# Summary of the method: as §1
# [12] = target: Glc(a1-4)Glc
# Summary of the method: as §1
# [13] = target: Glc(a1-4)Glc(a1-4)Glc(a1-4)Glc
# Summary of the method: as §1
# [14] = target: Glc(a1-6)Glc(a1-6)Glc
# Summary of the method: as §1
# [15] = target: Glc(a1-6)Glc(a1-6)Glc(a1-6)Glc
# Summary of the method: as §1
# [16] = target: Glc(b1-4)Glc
# Summary of the method: as §1
# [17] = target: Glc(b1-6)Glc
# Summary of the method: as §1
# [18] = target: GlcA(b1-3)Gal
# Summary of the method: as §1
# [19] = target: GlcA(b1-3)GlcNAc
# Summary of the method: as §1
# [20] = target: GlcA(b1-6)Gal
# Summary of the method: as §1
# [21] = target: GlcA3S(b1-3)Gal(b1-4)GlcNAc(b1-2)Man
# Summary of the method: as §1
# [22] = target: GlcA3S(b1-3)Gal(b1-4)GlcNAc(b1-3)Gal(b1-4)Glc
# Summary of the method: as §1
# [23] = target: GlcNAc(a1-3)Gal(b1-4)GlcNAc
# Summary of the method: as §1
# [24] = target: GlcNAc(a1-4)Gal(b1-3)GlcNAc
# Summary of the method: as §1
# [25] = target: GlcNAc(a1-4)Gal(b1-4)GalNAc
# Summary of the method: as §1
# [26] = target: GlcNAc(a1-4)Gal(b1-4)GlcNAc
# Summary of the method: as §1
# [27] = target: GlcNAc(a1-4)Gal(b1-4)GlcNAc(b1-3)Gal(b1-4)Glc
# Summary of the method: as §1
# [28] = target: GlcNAc(a1-4)Gal(b1-4)GlcNAc(b1-3)Gal(b1-4)GlcNAc
# Summary of the method: as §1
# [29] = target: GlcNAc(a1-4)Gal(b1-4)GlcNAc(b1-3)Gal(b1-4)GlcNAc(b1-3)Gal(b1-4)GlcNAc
# Summary of the method: as §1
# [30] = target: GlcNAc(a1-4)Gal(b1-4)GlcNAc(b1-3)Gal(b1-4)[Fuc(a1-3)]GlcNAc(b1-3)Gal(b1-4)[Fuc(a1-3)]GlcNAc
# Summary of the method: as §1
binder,measurement,setting,value
B1,glycan array binding signal (z-score),[1],-0.093
same,glycan array binding signal (z-score),[2],-0.403
same,glycan array binding signal (z-score),[3],-0.124
same,glycan array binding signal (z-score),[4],-0.502
same,glycan array binding signal (z-score),[5],-0.166
same,glycan array binding signal (z-score),[6],-0.312
same,glycan array binding signal (z-score),[7],-0.587
same,glycan array binding signal (z-score),[8],-0.926
same,glycan array binding signal (z-score),[9],-0.594
same,glycan array binding signal (z-score),[10],-0.169
same,glycan array binding signal (z-score),[11],0.169
same,glycan array binding signal (z-score),[12],-0.142
same,glycan array binding signal (z-score),[13],0.279
same,glycan array binding signal (z-score),[14],-0.204
same,glycan array binding signal (z-score),[15],-0.135
same,glycan array binding signal (z-score),[16],-0.374
same,glycan array binding signal (z-score),[17],-0.403
same,glycan array binding signal (z-score),[18],0.217
same,glycan array binding signal (z-score),[19],-0.73
same,glycan array binding signal (z-score),[20],-0.538
same,glycan array binding signal (z-score),[21],-0.121
same,glycan array binding signal (z-score),[22],-0.203
same,glycan array binding signal (z-score),[23],0.199
same,glycan array binding signal (z-score),[24],-0.572
same,glycan array binding signal (z-score),[25],-0.004
same,glycan array binding signal (z-score),[26],-0.455
same,glycan array binding signal (z-score),[27],-0.467
same,glycan array binding signal (z-score),[28],-0.243
same,glycan array binding signal (z-score),[29],-0.664
same,glycan array binding signal (z-score),[30],-0.106

# Pulled one by one from the entries so far (2):
binder,measurement,setting,value
B1,glycan array binding signal (z-score),[12],-0.142
same,glycan array binding signal (z-score),[15],-0.135
